# Experimental data from PubChem BioAssay AID256 (DTP/NCI, 2004).
# The list shows only some results of the screen, not a fair sample: it gathers tests that were run many times, whatever their T/C, doses with no T/C, and many T/C values between a quarter and a half above the control. Further doses and runs are listed elsewhere. T/C gives the treated animals as a percentage of the vehicle group. Some doses have a count of surviving animals in place of a T/C: the source holds a T/C of zero for them, seemingly a mark for toxic or unscored doses. Some survivor counts are full or nearly so, which does not show that the dose was tolerated: survival well below the control is almost never listed, so the zero probably covers shortened survival too. Survivors were counted at the toxicity check, usually on the fifth day, unless a day is given; later deaths do not show. Schedule codes are those of the source, read here as Q, the interval in days (D) or hours (H), X, the number of doses. For survival time, the PubChem record calls one and a half times the control and up active, and a quarter to a half above the control has no call in these data; cut-offs in other NCI protocols can differ. Some entries hold several experiments; their values stand side by side, smallest first.
# Test system: CD2F1 mice, L1210 leukemia ip, survival T/C
# Assay: NCI In Vivo Anticancer Drug Screen. Data for tumor model L1210 Leukemia (intraperitoneal) in CD2F1 (CDF1) mice
# Settings: higher T/C = longer survival
# How it was run: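 Vehicle-treated tumor-bearing mice served as controls (C) for compound-treated mice (T). Reported figure is T divided by C.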
# [1] = T/C endpoint: mean survival time, dose: 100.0 mg/kg/injection, schedule: Q04DX003 (ip), vehicle: saline with Tween-80
# [2] = T/C endpoint: mean survival time, dose: 200.0 mg/kg/injection, schedule: Q04DX003 (ip), vehicle: saline with Tween-80
# [3] = T/C endpoint: mean survival time, dose: 400.0 mg/kg/injection, schedule: Q04DX003 (ip), vehicle: saline with Tween-80
compound,measurement,setting,value
O=NN(CCCl)C(=S)NCCCl,T/C,"T/C endpoint: mean survival time, dose: 7.5 mg/kg/injection, schedule: Q01DX001 (ip), vehicle: distilled water + Tween-80",143 and 144 % of control
same,T/C,"T/C endpoint: mean survival time, dose: 30.0 mg/kg/injection, schedule: Q01DX001 (ip), vehicle: distilled water + Tween-80",143 % of control
same,survivor count,"T/C endpoint: mean survival time, dose: 60.0 mg/kg/injection, schedule: Q01DX001 (ip), vehicle: distilled water + Tween-80",3 of 6
same,survivor count,"T/C endpoint: mean survival time, dose: 120.0 mg/kg/injection, schedule: Q01DX001 (ip), vehicle: distilled water + Tween-80",1 of 6
O=[n+]1ccn2cc3ccccc3cc2c1,survivor count,"T/C endpoint: mean survival time, dose: 25.0 mg/kg/injection, schedule: Q04DX003 (ip), vehicle: saline with Tween-80",6 of 6
same,survivor count,[1],5 of 6
same,survivor count,[2],1 of 6
same,survivor count,[3],0 of 6
O=C1CCCC2C3CC(CN12)C1CCCCN1C3 (centres undefined),survivor count,[2],3 of 6
same,survivor count,[3],0 of 6
O=C(CCl)NC12Nc3ccccc3C1(Cc1ccccc1)CN(C1CCCCC1)C2=O (centres undefined),survivor count,"T/C endpoint: mean survival time, dose: 100.0 mg/kg/injection, schedule: Q04DX002 (ip), vehicle: saline with Tween-80",3 of 3
same,survivor count,"T/C endpoint: mean survival time, dose: 400.0 mg/kg/injection, schedule: Q01DX001 (ip), vehicle: saline with Tween-80",6 of 6
CN1CCCN(C)C1c1cc([N+](=O)[O-])ccc1O,survivor count,[1],2 of 6
same,survivor count,[2],0 of 6
same,survivor count,[3],1 of 6
CN(C)CCC(=O)c1ccc([N+](=O)[O-])cc1,survivor count,"T/C endpoint: mean survival time, dose: 10.0 mg/kg/injection, schedule: Q04DX003 (ip), vehicle: saline with Tween-80",3 of 6
same,survivor count,"T/C endpoint: mean survival time, dose: 20.0 mg/kg/injection, schedule: Q04DX003 (ip), vehicle: saline with Tween-80",0 of 6
O=CC(=O)c1ccc(O)cc1,survivor count,"T/C endpoint: mean survival time, dose: 200.0 mg/kg/injection, schedule: Q01DX009 (ip), vehicle: saline",4 of 6
Cc1cc(C)cc(C(C)(C)C)c1,survivor count,"T/C endpoint: mean survival time, dose: 400.0 mg/kg/injection, schedule: Q01DX009 (ip), vehicle: saline with Tween-80",4 of 6
ON1C=CC2C=CC1c1ccccc12 (centres undefined),survivor count,"T/C endpoint: median survival time, dose: 400.0 mg/kg/injection, schedule: Q04DX002 (ip), vehicle: saline with Tween-80",2 of 3
Cc1ccc(NC(=O)N(CCCl)N=O)cc1,T/C,"T/C endpoint: mean survival time, dose: 5.4 mg/kg/injection, schedule: Q01DX015 (ip), vehicle: saline",136 % of control
COc1cc2c(cc1OC)C1c3cc(OC)c(OC)cc3CCN1CC2,survivor count,"T/C endpoint: mean survival time, dose: 50.0 mg/kg/injection, schedule: Q01DX009 (ip), vehicle: other",1 of 6
same,survivor count,"T/C endpoint: mean survival time, dose: 100.0 mg/kg/injection, schedule: Q01DX009 (ip), vehicle: other",0 of 6
same,survivor count,"T/C endpoint: mean survival time, dose: 200.0 mg/kg/injection, schedule: Q01DX009 (ip), vehicle: other",0 of 6
CCN1/C(=C\c2ccc3cc(OC)ccc3[n+]2CC)[Se]c2ccc(OC)cc21,survivor count,"T/C endpoint: mean survival time, dose: 19.0 mg/kg/injection, schedule: Q01DX001 (ip), vehicle: other",0 of 6
same,survivor count,"T/C endpoint: mean survival time, dose: 38.0 mg/kg/injection, schedule: Q01DX001 (ip), vehicle: other",0 of 6
same,survivor count,"T/C endpoint: mean survival time, dose: 75.0 mg/kg/injection, schedule: Q01DX001 (ip), vehicle: other",0 of 6
same,survivor count,"T/C endpoint: mean survival time, dose: 150.0 mg/kg/injection, schedule: Q01DX001 (ip), vehicle: other",0 of 6
same,survivor count,"T/C endpoint: mean survival time, dose: 300.0 mg/kg/injection, schedule: Q01DX001 (ip), vehicle: other",0 of 6
CN(Cc1cnc2nc(N)nc(N)c2n1)c1ccc(C(=O)NC(CCC(=O)O)C(=O)NC(CCC(=O)O)C(=O)O)cc1 (centres undefined),T/C,"T/C endpoint: mean survival time, dose: 10.0 mg/kg/injection, schedule: Q01DX009 (ip), vehicle: sodium bicarbonate",127 % of control
same,T/C,"T/C endpoint: mean survival time, dose: 50.0 mg/kg/injection, schedule: Q01DX009 (ip), vehicle: sodium bicarbonate",131 % of control
Cc1cc(O)cc(=O)o1,survivor count,"T/C endpoint: mean survival time, dose: 100.0 mg/kg/injection, schedule: Q01DX001 (ip), vehicle: other",6 of 6
c1cn[nH]c1,T/C,"T/C endpoint: median survival time, dose: 100.0 mg/kg/injection, schedule: Q01DX009 (ip), vehicle: saline + alcohol",126 % of control
same,T/C,"T/C endpoint: median survival time, dose: 100.0 mg/kg/injection, schedule: Q01DX009 (ip), vehicle: saline",132 % of control
